In PubChem BioAssay AID1794845 (National Center for Advancing Translational Sciences (NCATS), 2023):
Screen size: about 6,900 compounds; fewer than 10 were called active. The call rests on the fitted dose curve; in most records, active means well fitted curve in the direction sought with a large enough effect; inconclusive means small, poorly fitted or top-dose-only effect, or another doubt; inactive means no such curve, though single readings can be large or run the other way. Some of the results follow.

Chains of the proteins cited; added tags and fusions are not shown. Lines headed by an entry give the natural chain unless they say otherwise; changes in a name come on top.
UniProt C7C422: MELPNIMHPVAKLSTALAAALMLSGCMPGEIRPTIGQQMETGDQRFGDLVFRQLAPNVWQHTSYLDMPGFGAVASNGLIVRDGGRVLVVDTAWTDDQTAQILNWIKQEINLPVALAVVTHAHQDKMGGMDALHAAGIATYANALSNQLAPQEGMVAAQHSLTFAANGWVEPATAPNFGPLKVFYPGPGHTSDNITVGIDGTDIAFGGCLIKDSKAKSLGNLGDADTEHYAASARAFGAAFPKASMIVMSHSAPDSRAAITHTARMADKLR

Target: Metallo-beta-lactamase type 2 (Klebsiella pneumoniae) (UniProt C7C422)
Assay: qHTS to identify inhibitors of the New Delhi Metallo-beta-lactamase (NDM): primary screen against the NCATS Gemini Collection; further: % of control where 0% means no effect
Settings: NDM-1 enzyme, meropenem hydrolysis, absorbance 300 nm; at 38.4 µM (top of the series) unless noted
Outline: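 Meropenem hydrolysis (50 uM final) by 2 nM NDM-1 read as 300 nm absorbance after 30 min, following >30 min compound–enzyme preincubation in HEPES pH 7.0 with 1 uM ZnSO4 and 0.01% Tween20.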

Activity % (negative = inhibition), inactive:
CN(C)C[C@@H]1CN(c2ncccn2)C[C@H]1NS(=O)(=O)c1cccnc1 1.09%
Cc1nn(C)c(C)c1-c1nc2cc(S(=O)(=O)N3CCCC3)ccc2n1C 11.1%
Cc1nc2c(NC3CCN(C(=O)c4cnccn4)CC3)cccn2n1 12.6%
CN(Cc1ccc(OC(F)(F)F)cc1)Cc1ccccc1C(F)(F)F 25.6%
COCc1ncc(C)n1CCNC(=O)c1cc(-c2cc(C)ccc2C)n[nH]1 -2.64%
O=C(NCc1ccc2c(c1)OCO2)c1nc(-c2ccc(F)cc2)c2cnccn12 20.3%
COCCC1(NC(=O)C2CC2)CCN(C(=O)c2ccccn2)CC1 5.91%
CC(C)c1ccc(N2C(=O)N[C@@H]3CCN(C(=O)C4CCCC4)[C@@H]3C2=O)cc1 -1.05% [at 57.5 µM]
COCCCNC(=O)c1cc(C)nc2onc(C3CCCNC3)c12 (stereo not given) 2.95%
CCCNC(=O)c1c(-c2ccccc2)cc(=O)n2c1CCC2 6.01%
O=C(c1c[nH]c2ncccc12)N1CCC(Cc2ccccc2)CC1 -0.941% [at 57.5 µM]
CN1CCC(OC2CCN(C(=O)c3cccc(F)c3)CC2)CC1 0.673%
CNC(=O)c1cc[nH]c1C1CCCN(C(=O)c2ccc(Cn3cncn3)o2)C1 (stereo not given) 3.21%
CC(C)CCN1CCC2(C1)C(=O)N(c1ccccc1)c1ccccc12 (stereo not given) -3.65%
CCn1c2c(c(=O)n1-c1ccccc1)CCN(C(=O)C1CCC1)C2 -2.87% [at 57.5 µM]
CCc1noc([C@@H]2CC(F)(F)CN2C(=O)c2ccco2)n1 23.1%
O=C(c1c[nH]c(=O)[nH]1)N1CC[C@@H]2[C@@H](CCC(=O)N2CC2CCNCC2)C1 -0.111%
COCCc1noc(CC2CCOC3(CCN(C(=O)C4CCOCC4)CC3)C2)n1 (stereo not given) -1.21%
Cc1oc(-c2ccccc2)nc1CN1CCCC(C(=O)N2CCC(c3nc(C(=O)N4CCCC4)c(C)o3)CC2)C1 (stereo not given) 2.21%
O=C(NC1CC1)[C@@H]1CN(CCCc2ccccc2)C[C@H]1CO 19.1%
COCc1nc(CCNS(=O)(=O)c2cccc(OC)c2)no1 -10.4%
CC(C)CN1CCN(c2nc(CCN)nc3ccccc23)CC1CCO (stereo not given) 6.5%
Cc1cc(C(=O)N2CCC(OCCOc3ccc(F)cc3)CC2)nn1C -0.543%
O=C1NC2(Cc3ccccc31)CN([S+](=O)([O-])c1cccs1)C2 -5.09%
COc1cc(=O)n2c(c1C(=O)NC1CCCCCC1)CCCC2 49.1%
O=C(O)c1cc(-c2ccncc2)cc(S(=O)(=O)N2CCCCCC2)c1 45.2%
O=C1CO[C@H]2CCN(Cc3ccccn3)CC[C@@H]2N1c1ccccc1 6.2% [at 57.5 µM]
COc1ccccc1CC(=O)N1CCCc2ncc(C(=O)Nc3cccc(Cl)c3)cc21 2.72% [at 57.5 µM]
O=C1c2cc(N3CCOCC3)nc(-c3cccc(CO)c3)c2CN1c1ccccc1 8.58% [at 57.5 µM]
COc1ncccc1-c1n[nH]c2c1CC(=O)N(Cc1ccccc1)C2 22.7% [at 57.5 µM]
CN1CCN(CCCNC(=O)C2(CCO)CCN(Cc3ccccc3)C2)CC1 (stereo not given) -11.1%
CC(O)CCNS(=O)(=O)c1ccc2c(c1)CN(C(=O)c1ccon1)CC2 (stereo not given) 16.7%
COc1ccc2[nH]c(CNc3cc(C4CC(N)C4)nc(C)n3)cc2c1 (stereo not given) 3.15%
COc1ccc(CN2CCN(C(=O)[C@H]3CCC[C@@H](O)C3)CC2=O)cc1 4.05%
CC1(C)[C@H](Cc2cc(COc3ccccc3)on2)C[C@@H]1NC1CCC1 -3.56% [at 57.5 µM]
CN1C(=O)CS(=O)C12CCN(C(=O)C1(c3ccccc3)CC1)CC2 (stereo not given) -1.38%
COCCNC(=O)C[C@@H]1C[C@@H](C(C)C)[C@H](CNC(=O)c2cnccn2)C=C1C 2.94% [at 57.5 µM]
CC(=O)N1CCC([C@@H]2CN(Cc3cccnc3)C[C@H]2CO)CC1 -0.828%
O=C(c1cccc([N+](=O)[O-])c1)N1CCc2c(c3ccccc3n2CC2CC2)C1 15.4%
COc1ccccc1OCCNC(=O)c1cn2ccnc(-c3ccc(C)cc3)c2n1 5.37%
CC(=O)NC1(C)CCN(Cc2cnc(-c3ccc4c(ccn4C)c3)s2)CC1 12.1% [at 57.5 µM]
O=C(Cc1ccccc1)N1CCCC1c1nc(CCOCC2CC2)no1 (stereo not given) 3.65%
Cc1cc(OC2CN([S+](=O)([O-])c3cccs3)C2)ccc1F -0.389% [at 57.5 µM]
CCCNC(=O)N1CCOC[C@H](Oc2ccc(OC)cc2)C1 11.1% [at 57.5 µM]
c1ccc(CN2CCC(Cc3ccc(CN4CCCC4)cc3)CC2)nc1 -1.57%
COCCNC(=O)C1CCc2sc(C(=O)N(C)C)cc2C1 (stereo not given) -10.8%
Cc1ccoc1C(=O)N1CCc2c(nc(-c3cccnc3)nc2N(C)C)C1 56.2%
CNC(=O)[C@@H]1C[C@H](n2cc(-c3ccc(CN4CC[C@@H](O)C4)cc3)nn2)CN1 3.01%
COc1ccc(CN2Cc3[nH]nc(-c4cnc(OC)nc4)c3CC2=O)cc1 3.12% [at 57.5 µM]
Cc1cnc(-c2ccncc2)n1CCN 27.4%
COC[C@@H]1CN(C(=O)c2ncccc2C)C[C@H]1C(N)=O -1.45%
CS(=O)(=O)N1CCC(Oc2ccc(C(=O)NCCc3ccccn3)cc2Cl)CC1 4.77%
O=C1CCN(CC(O)C(F)(F)F)c2ccccc2CCN1Cc1ccccc1 (stereo not given) 0.677% [at 16.1 µM]
COc1ccc(CCNC(=O)c2c(C)noc2-c2cc(OC)cc(OC)c2)cc1 0.485%
Cc1noc(C)c1CC(=O)N1CCCCCCNC(=O)[C@@H]2CCCC[C@@H]21 7.62%
CCCCN1C(=O)CC[C@H]2CN(C(=O)Cc3c[nH]c(=O)n(C)c3=O)CC[C@H]21 1.9%
CCOc1ccccc1CN1CCC(C)(c2noc(C3CCOCC3)n2)CC1 -5.78%
Cc1nc(-c2cccc(Cl)c2)n(CC(=O)NCc2ccc(F)cc2)c(=O)c1CCO 7.94%
O=C(c1cncs1)N1CCc2c(cc(-c3cccc(F)c3)c(=O)n2CCN2CCCCC2)C1 3.53%
CS(=O)(=O)N1CCCOCCNC(=O)[C@@H]2CCC[C@@H]21 4.06%
CN1CCN(Cc2nc(C3(O)CCN(Cc4ccccc4C(F)(F)F)CC3)cs2)CC1 -3.96%
O=C(N[C@H]1CCN2C(=O)c3ccccc3NC(=O)[C@H]12)c1cccc(F)c1 6.56% [at 57.5 µM]
CC(=O)N1CCN(C(=O)c2cnc(N)nc2-c2ccccc2)CC(O)C1 (stereo not given) -0.312%
COc1ccc(C)cc1NC(=O)C1CCCN(c2cn[nH]c(=O)c2)C1 (stereo not given) 19.9%
CN1C[C@H]2CN(C(=O)c3cccnc3)CCN2C1=O 0.46% [at 77.1 µM]
COc1cccc(-c2cc(-c3cccs3)nc3c(C)noc23)c1 8.45% [at 57.5 µM]
Cc1noc(C)c1-c1cc2c(cc(C)n2C)c(NCc2ccncc2)n1 11.6% [at 57.5 µM]
Cc1nc([C@@H]2CN(C(=O)c3sccc3C)C[C@H]2C(N)=O)n[nH]1 13.7%
COc1cccc(C(=O)N(C)C2CCc3ccccc32)c1 (stereo not given) -0.248% [at 57.5 µM]
COc1ccc(C)cc1NC(=O)CCC[C@@H]1[C@H]2CCCN3CCC[C@@H](CN1C)[C@@H]23 3.49%
CC1CCCCN1CCCNC(=O)c1cc2c(s1)CN(C1CCCC1)C2 (stereo not given) 10.1%
CC(C)Cc1cc(CN2CCC(CO)(CN3CCCC3)CC2)[nH]n1 6.63%
CC[C@H](C)[C@H](N)C(=O)N1CCC(Cn2cc(C3CCCC3)nn2)CC1 19.7%
Cc1nnc2n1CCC(N(C)C(=O)NCCc1ccccc1)CC2 (stereo not given) -3.02%
COc1ccc(C(=O)N2CCN(CCCn3nc4n(c3=O)CCCC4)CC2)cc1 2.05%
CCn1cc(-c2ccc(Cl)cc2)cc1C(=O)N1CCN(c2ccccn2)CC1 -6.17%
c1ccc(C2=NOC3(CCN(C4CCCCC4)CC3)C2)cc1 -5.91%
O=c1c(NS(=O)(=O)Cc2ccccc2)ccc2n1C[C@H]1C[C@@H]2CN(S(=O)(=O)c2ccccc2)C1 25.6%
Cn1cc(-c2cnc(Nc3cccnc3)c3c2CCO3)cn1 16% [at 57.5 µM]
O=C1CCN(C(=O)CCc2ccccc2)CCCC(CO)CCN1 (stereo not given) 13.2%
CNC(=O)c1cc(C2CC2)nc2onc(C3CCCN3C(=O)Cc3ccccn3)c12 (stereo not given) 66.2%
COc1cccc2c1OCCCN(c1cc(C3CC(O)C3)nc(N)n1)C2 (stereo not given) 1.85%
Cc1ccc(C(=O)N2CCCC(n3cc(-c4nc(C5CC5)no4)nn3)C2)s1 (stereo not given) 24.7%
CC(=O)N1CCN(C(=O)C[C@@H]2C[C@@H](C(C)C)[C@H](CNC(=O)c3cncnc3)C=C2C)CC1 17.8%
Cc1oc2c(c1C(=O)N1CCN(C3CCCC3)CC1)CN(Cc1cccc(F)c1)CC2 13.4%

An excerpt from the list above, as a working copy:
Activity % (negative = inhibition), inactive:
O=C(NC1CC1)[C@@H]1CN(CCCc2ccccc2)C[C@H]1CO 19.1%
COCc1nc(CCNS(=O)(=O)c2cccc(OC)c2)no1 -10.4%
CC(C)CN1CCN(c2nc(CCN)nc3ccccc23)CC1CCO (stereo not given) 6.5%

A draw from above in order of length of the SMILES, high to low:
Activity % (negative = inhibition), inactive:
CC(=O)N1CCN(C(=O)C[C@@H]2C[C@@H](C(C)C)[C@H](CNC(=O)c3cncnc3)C=C2C)CC1 17.8%
CS(=O)(=O)N1CCC(Oc2ccc(C(=O)NCCc3ccccn3)cc2Cl)CC1 4.77%
COc1cccc(C(=O)N(C)C2CCc3ccccc32)c1 (stereo not given) -0.248% [at 57.5 µM]
